Values of other authors, collected in patent US9920057B2, “Substituted pyrazino[1′,2′:1 ,6]pyrido[3,4-b]indoles as phosphodiesterase type 5 inhibitors” (Chongqing University of Arts and Sciences, priority 2015, dated 2018).
Some entries share one result that the patent states for a list of compounds.

Conditions: background statement; cited from earlier work

SMILES	half-life in body
CCCc1nc(C)c2c(=O)[nH]c(-c3cc(S(=O)(=O)N4CCN(CC)CC4)ccc3OCC)nn12 [Levitra]	4 to 5 h
CCCc1nn(C)c2c(=O)[nH]c(-c3cc(S(=O)(=O)N4CCN(C)CC4)ccc3OCC)nc12 [Viagra]	4 to 5 h
